These are yes or no findings as the source states them, for the method shown. In cells and extracts the contact can be indirect. A yes stands for co-enrichment or nearness to the bait. Other partners may have been found.
Target: T1, asparagine endopeptidase (AEP) (human) (UniProt Q99538)
T1 sequence: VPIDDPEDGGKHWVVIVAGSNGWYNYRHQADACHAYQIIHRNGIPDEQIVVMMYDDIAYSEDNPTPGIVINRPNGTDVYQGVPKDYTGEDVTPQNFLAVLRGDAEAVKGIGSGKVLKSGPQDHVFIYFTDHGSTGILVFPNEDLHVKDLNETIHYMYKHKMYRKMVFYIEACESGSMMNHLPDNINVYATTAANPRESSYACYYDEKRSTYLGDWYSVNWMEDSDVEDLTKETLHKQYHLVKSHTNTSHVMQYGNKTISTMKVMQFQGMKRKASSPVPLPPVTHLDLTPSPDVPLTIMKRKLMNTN
Assay: affinity purification with mass spectrometry; IP with anti-AEP antibody (1:50) from AEP-KO U2OS infected with human AEP lentivirus, 50 umol/L cisplatin or vehicle for 6 h; IP buffer; LC-MS/MS

Sequences of proteins named here, by UniProt entry; tags and fusion partners are left off.
UniProt Q13283: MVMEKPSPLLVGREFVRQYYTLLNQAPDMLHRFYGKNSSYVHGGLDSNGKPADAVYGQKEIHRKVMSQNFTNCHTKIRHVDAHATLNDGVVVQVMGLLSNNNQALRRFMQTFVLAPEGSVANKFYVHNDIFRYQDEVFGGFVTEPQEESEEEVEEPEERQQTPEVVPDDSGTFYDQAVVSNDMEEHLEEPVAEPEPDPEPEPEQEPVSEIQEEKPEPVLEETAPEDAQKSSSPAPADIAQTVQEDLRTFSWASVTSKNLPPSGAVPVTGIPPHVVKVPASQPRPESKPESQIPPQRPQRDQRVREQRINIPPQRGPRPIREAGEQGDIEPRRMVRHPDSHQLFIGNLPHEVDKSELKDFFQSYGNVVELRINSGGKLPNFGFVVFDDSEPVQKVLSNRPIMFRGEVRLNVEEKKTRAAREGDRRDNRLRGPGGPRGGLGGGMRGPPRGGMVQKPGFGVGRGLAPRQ

Question: With “Ras-GTPase-activating protein (GAP)-binding protein 1 (G3BP1) (from UniProt Q13283 1-466)” as the substance, how does the binding read?
Answer: Its binding is “binds”.
